Measurements: US11274332B2, “Methods of administering 3,4-diaminopyridine” (SERB SA, priority 2011, dated 2022)
At least one read-out could not be matched to a standard name with certainty.

Assay: Example 18 Part 1: single ascending dose PK (5-30 mg) in slow and fast acetylators
Format: in vivo, human
Conditions: single oral doses 5 to 30 mg
Method: The following method was used to analyze concentrations of 3,4-diaminopyridine and N-(4-aminopyridin-3-yl)acetamide in plasma and urine samples for the experiments in Example 18. In the LC/MS/MS method, the human plasma and urine samples were extracted using acetonitrile containing 0.1% formic acid. Samples were analyzed by using HPLC with positive ion electrospray MS/MS detection. The column was an Atlantis HILIC Silica column (3 μm, 3×50 mm) at a temperature of 40° C. Mobile phase A was water containing ammonium formate (20 mM) and 0.1% formic acid. Mobile phase B was acetonitrile/isopropanol (90/10; v/v) containing 0.1% formic acid. The flow rate was 0.90 mL/minute. The gradient conditions for human plasma and urine samples were as follows:
The LC/MS/MS method was validated to quantify 3,4-DAP in human plasma in the linear calibration range of 0.500 to 500 ng/mL and from 1.00 to 1000 ng/mL for the 3-N-acetyl metabolite.
The primary objective of the study was to assess the safety and tolerability of 3,4-DAP phosphate after single and multiple doses. […]
All subjects were characterized for their metabolic acetylation phenotype and NAT2 genotype in order to divide subjects into two groups of acetylators. […] In each part of the study, subjects were assessed for PK, safety, and tolerability and all doses were administered within 30 min of ingestion of a meal or a snack. […]

Nc1ccncc1N [3,4-DAP, 3,4-diaminopyridine]
time of mean Cmax post-dose, range over doses (fast acetylator phenotype): 0.75 to 1.04 h | time of mean Cmax post-dose, range over doses (slow acetylator phenotype): 0.83 to 1.29 h
